# The supplement of paper PMC3047530
# Where “and” joins values, the source holds several entries; their conditions need not be identical. Equal values may be shown once. The list shows a part of the results. Repeats are few or missing, and single values can be far off.
# Tested on: Geomyces destructans
# Assay: growth inhibition relative to DMSO control; higher = stronger growth inhibition
# Details: 10 µM; 15 °C; incubation time 10 days
row,Compound,growth inhibition
1,CC(=O)OC1CN2CCC1CC2 (stereo unspecified),6.42%
2,CC(CCc1ccccc1)NC(C)C(O)c1ccc(O)cc1 (stereo unspecified),-19.2%
3,COC(=O)[C@]1(C)CC[C@]2(C)CC[C@]3(C)C4=CCc5c(cc(O)c(O)c5C)[C@]4(C)CC[C@@]3(C)[C@@H]2C1,-5.81%
4,COP(=S)(OC)Oc1ccc([N+](=O)[O-])cc1,2.16%
5,N.N.[Cl][Pt][Cl],4.86%
6,COc1cc(OC)c2c(c1)OC(c1ccc(OC)c(OC)c1)C(O)C2 (stereo unspecified),0.865%
7,CCCN1C[C@H](CSC)C[C@@H]2c3cccc4[nH]cc(c34)C[C@H]21,-15.7%
8,CC(C)N1C(=O)c2ccccc2NS1(=O)=O,-11.9%
9,c1ccc2c(c1)cc1ccc3cccc4ccc2c1c34,8.51%
10,CC[C@@H](C)C(=O)O[C@H]1[C@H](O)[C@H]2[C@@H](CN3C[C@@H](C)CC[C@H]3[C@@]2(C)O)[C@@H]2C[C@]34O[C@]5(O)[C@@H](OC(=O)[C@](C)(O)[C@@H](C)O)CC[C@@]3(C)[C@@H]5[C@@H](OC(C)=O)[C@@H](OC(C)=O)[C@H]4[C@@]21O (stereo in doubt),-10.2%
11,CC1=C(O)C(=O)C=C2C1=CC=C1[C@@]2(C)CC[C@@]2(C)[C@@H]3C[C@](C)(C(=O)O)CC[C@]3(C)CC[C@]12C,-26.3%
12,N#C/C(=C\c1ccc(O)cc1)C(=O)O [alpha-CYANO-4-HYDROXYCINNAMIC ACID],-17.2%
13,CC(=O)Oc1ccc(/C=C/c2cc(OC(C)=O)cc(OC(C)=O)c2)cc1,-4.62%
14,Oc1cccc2cccnc12,-14.9%
15,COC(=O)[C@]1(C)CC[C@]2(C)CC[C@]3(C)C4=CC=C5C(=CC(=O)C(O)=C5C)[C@]4(C)CC[C@@]3(C)[C@@H]2C1,-22.6%
16,Cc1ncc(CNC(=O)N(CCCl)N=O)c(N)n1,-35%
17,CN1CCCCC1c1ccc(-c2cccnc2)nc1 (stereo unspecified),3.56%
18,CCCCCCCCCc1ccc(O)cc1,10.2%
19,CNc1ccc(C(=O)CC(O)CCC(C)C2OC(=O)CC(O)CC(=O)CC(O)CC(O)CC(O)CC(O)CC3(O)CC(O)C(C(=O)OC)C(CC(O[C@@H]4O[C@H](C)[C@@H](O)[C@H](N)[C@@H]4O)/C=C/C=C/C=C/C=C/C=C/C=C/C=C/C2C)O3)cc1.COC(=O)C1C(O)CC2(O)CC(O)CC(O)CC(O)CC(O)CC(=O)CC(O)CC(=O)OC(C(C)CCC(O)CC(=O)c3ccc(N)cc3)C(C)/C=C/C=C/C=C/C=C/C=C/C=C/C=C/C(O[C@@H]3O[C@H](C)[C@@H](O)[C@H](N)[C@@H]3O)CC1O2 (stereo partly specified),-29%
20,COc1ccc2[nH]cc(CCN)c2c1,-1.93%
21,CC(=O)O[C@H]1C[C@H](O[C@H]2[C@@H](O)C[C@H](O[C@H]3[C@@H](O)C[C@H](O[C@H]4CC[C@@]5(C)[C@H](CC[C@@H]6[C@@H]5C[C@@H](O)[C@]5(C)[C@@H](C7=CC(=O)OC7)CC[C@]65O)C4)O[C@@H]3C)O[C@@H]2C)O[C@H](C)[C@H]1O[C@@H]1O[C@H](CO)[C@@H](O)[C@H](O)[C@H]1O,-11.7%
22,O=C1C=C2C(=CCOC2O)O1 (stereo unspecified),-20.9%

row,Compound,growth inhibition
1,COc1ccc(CCN2CCC(Nc3nc4ccccc4n3Cc3ccc(F)cc3)CC2)cc1,-12.1%
2,CC1=C2[C@H]3OC(=O)[C@@H](C)[C@@H]3CC[C@@]2(C)C=CC1=O,-3.62%
3,OCC(O)Cc1ccc2c(c1)OCO2 (stereo unspecified),-26.1%
4,CCC(N)C(O)c1ccc(O)c(O)c1 (stereo unspecified),-9.86%
5,COC1C(O)C(O[C@H]2CC[C@]3(C=O)C4C(CC[C@]3(O)C2)[C@@]2(O)CC[C@H](C3=CC(=O)OC3)[C@@]2(C)C[C@H]4OC(C)=O)OC(C)C1OC(C)=O (stereo partly specified),-15.2%
6,CC1(C)C(C=C(Cl)Cl)C1C(=O)OC(C#N)c1cccc(Oc2ccccc2)c1 (stereo unspecified),72.6%
7,O=C1CCCN1CC#CCN1CCCC1,-9.77% and -9.53%
8,CO[C@@H]1C[C@@H](C[C@H]2CC[C@H](C)[C@H]([C@@H](C)C(=O)O)O2)O[C@]2(O[C@](C)([C@H]3CC[C@@](C)([C@@H]4O[C@@H]([C@H]5O[C@@](O)(CO)[C@H](C)C[C@@H]5C)C[C@@H]4C)O3)C[C@H]2C)[C@@H]1C,-7.53%
9,COc1ccc(Cc2nccc3cc(OC)c(OC)cc23)cc1OC,-25.4%
10,COc1cc2c(c(OC)c1OC)-c1ccc(=O)c(O)cc1[C@@H](NC(C)=O)CC2,-9.28%
11,CNC1=Nc2ccc(Cl)cc2C(c2ccccc2)=[N+]([O-])C1,-6.42%
12,CCC1(CC)C(=O)C=CNC1=O,-5.2%
13,COc1cc2c(cc1OC)[C@H](C)NCC2,-7.21%
14,CCOCN(C(=O)CCl)c1c(C)cccc1CC,7.95%
15,COP(=O)(OC)OC(Br)C(Cl)(Cl)Br (stereo unspecified),-2.41%
16,COc1cc2c(cc1OC)[C@@]13CCN4CC5=CCO[C@H]6CC(=O)N2[C@H]1[C@H]6[C@H]5C[C@H]43,-6.41%
17,CC(C)(C)NCC(O)c1cc(Cl)c(N)c(Cl)c1 (stereo unspecified),-8.03%
18,C=C(C)[C@H]1Cc2c(ccc3c2O[C@@H]2COc4cc(OC)c(OC)cc4[C@@H]2C3=O)O1,3.56%
19,COC(=O)C1=CCCN(C)C1,-34.1%
20,NCC(CC(=O)O)c1ccc(Cl)s1 (stereo unspecified),-40.2%
21,CCC1(c2ccc(N)cc2)CCC(=O)NC1=O (stereo unspecified),-5.92%
22,C[C@@H](N)[C@@H](O)c1ccccc1,-18.3% and -14.8%

row,Compound,growth inhibition
1,COc1cc2c(cc1OC)[C@@H]1C(=O)c3ccc(O)c(CC=C(C)C)c3O[C@@H]1CO2,-4.6%
2,NCCc1ccc(O)cc1,-40.6%
3,C[C@]12CC[C@H](O)C[C@@H]1CC[C@@H]1[C@@H]2CC[C@]2(C)C(=O)CC[C@@H]12,-0.395%
4,C[N+]1(C)[C@@H]2C[C@@H](OC(=O)[C@H](CO)c3ccccc3)C[C@H]1[C@@H]1O[C@@H]12,8.34%
5,CCn1cc(C(=O)O)c(=O)c2cc3c(cc21)OCO3,-4.73%
6,CO[C@H]1C[C@H](O[C@H]2CC[C@]3(C=O)[C@H]4CC[C@]5(C)[C@@H](C6=CC(=O)OC6)CC[C@]5(O)[C@@H]4CC[C@]3(O)C2)O[C@H](C)[C@H]1O,-10.4%
7,CC1(C)C2C[C@@H](O)[C@]3(C)C(CC[C@@]4(C)[C@H](c5ccoc5)OC(=O)[C@H]5O[C@]543)[C@@]2(C)[C@@H](O)C[C@H]1O (stereo partly specified),-12.6%
8,C[C@@H]1O[C@@H](O[C@H]2C[C@@H](O)[C@]3(CO)[C@H]4[C@H](O)C[C@]5(C)[C@@H](C6=CC(=O)OC6)CC[C@]5(O)[C@@H]4CC[C@]3(O)C2)[C@H](O)[C@H](O)[C@H]1O,-9.73%
9,COc1ccc2c3c([nH]c2c1)C(C)=NCC3,-7.88%
10,CCOP(=S)(OCC)SCCSCC,-16.7%
11,C[C@]12C=CC(=O)C=C1CC[C@@H]1[C@@H]2CC[C@]2(C)C(=O)CC[C@@H]12,-2.37%
12,CCN1C[C@]2(COC)[C@H](O)C[C@H](OC)[C@@]34[C@@H]5C[C@@]6(O)[C@H](OC(=O)c7ccccc7)[C@@H]5[C@@](OC(C)=O)([C@@H]([C@H](OC)[C@H]23)[C@@H]14)[C@@H](O)[C@@H]6OC,-28.4%
13,CC(=O)CC1CCCCN1 (stereo unspecified),8.36%
14,CC[C@@]1(O)C[C@H](O[C@H]2C[C@H](N(C)C)[C@H](O)[C@H](C)O2)c2c(cc3c(c2O)C(=O)c2c(O)ccc(O)c2C3=O)[C@H]1C(=O)OC,-2.83%
15,O=[N+]([O-])c1cc([As](=O)(O)O)ccc1O,6.25%
16,"CC(=O)C1CCC2C3CCC4C[C@H](O)CCC4(C)C3C[C@H](O)C12C (stereo partly drawn) [DIHYDROXY (3alpha,12alpha)PREGNAN-20-ONE]",3.07%
17,CCc1cccc(CC)c1N(COC)C(=O)CCl,-2.26%
18,CC(=O)Oc1ccc(Cl)c2cccnc12,86.6%
19,C=C(C)[C@@H]1[C@H]2OC(=O)[C@@H]1[C@]1(O)C[C@H]3O[C@]34C(=O)O[C@H]2[C@]14C,-29.9%
20,Oc1ccc(Cl)cc1,-19.4%
21,CNC(=O)Oc1cccc2c1OC(C)(C)O2,-6.22%
22,COS(C)(=O)=O,-17.6%

# In another format: results already given
row	Compound	growth inhibition
12	N#C/C(=C\c1ccc(O)cc1)C(=O)O [alpha-CYANO-4-HYDROXYCINNAMIC ACID]	-17.2%
19	CNc1ccc(C(=O)CC(O)CCC(C)C2OC(=O)CC(O)CC(=O)CC(O)CC(O)CC(O)CC(O)CC3(O)CC(O)C(C(=O)OC)C(CC(O[C@@H]4O[C@H](C)[C@@H](O)[C@H](N)[C@@H]4O)/C=C/C=C/C=C/C=C/C=C/C=C/C=C/C2C)O3)cc1.COC(=O)C1C(O)CC2(O)CC(O)CC(O)CC(O)CC(O)CC(=O)CC(O)CC(=O)OC(C(C)CCC(O)CC(=O)c3ccc(N)cc3)C(C)/C=C/C=C/C=C/C=C/C=C/C=C/C=C/C(O[C@@H]3O[C@H](C)[C@@H](O)[C@H](N)[C@@H]3O)CC1O2 (stereo partly specified)	-29%
6	CO[C@H]1C[C@H](O[C@H]2CC[C@]3(C=O)[C@H]4CC[C@]5(C)[C@@H](C6=CC(=O)OC6)CC[C@]5(O)[C@@H]4CC[C@]3(O)C2)O[C@H](C)[C@H]1O	-10.4%
9	COc1ccc2c3c([nH]c2c1)C(C)=NCC3	-7.88%

# (list continues)

row,Compound,growth inhibition
1,CC(=O)OC1CCC23C(=O)OC45CCC(C6=CC(=O)OC6)C4(C)CCC2C5CCC3(O)C1 (stereo unspecified),2.44%
2,CCCCN(CC)c1c([N+](=O)[O-])cc(C(F)(F)F)cc1[N+](=O)[O-],-6.22%
3,NC(=O)CN1CCCC1=O,-13.4%
4,CC1(C)C(O)CC(O)C2(C)C1CC(O)C1(C)C2CCC2(C)C(c3ccoc3)CC3OC321 (stereo unspecified),-11.5%
5,CC1C[C@H]2CC(=O)[C@H]3CCCN4CCC[C@H]2[C@]34C1.[O-][Cl+3]([O-])([O-])O (stereo partly specified),-14%
6,COc1cc([C@@H]2c3cc4c(c(O)c3C[C@H]3COC(=O)[C@@H]32)OCO4)cc(OC)c1OC [beta-PELTATIN],12.4%
7,C[C@]12CC[C@H](O)C[C@H]1CC[C@@H]1[C@@H]2[C@H](O)C[C@]2(C)[C@@H](C3=CC(=O)OC3)CC[C@]12O,-10.4%
8,CC(=O)c1c(O)c(C)c(O)c2c1oc1c(C(C)=O)c(O)c(C)c(O)c12,-15.8%
9,Clc1ccc(C(OCCN2CCCCC2)c2ccccc2)cc1 (stereo unspecified),-8.54%
10,CCCSP(=O)(OCC)SCCC,-7.44%
11,NCCc1c[nH]c2ccccc12,-12.3%
12,C[C@]12CC[C@H](O)C[C@H]1CC[C@@H]1[C@@H]2C[C@@H](O)[C@]2(C)[C@@H](C3=CC(=O)OC3)CC[C@]12O,-3.64%
13,ClC1=C(Cl)C2(Cl)C3C4C=CC(C4)C3C1(Cl)C2(Cl)Cl (stereo unspecified),-5%
14,C[C@]12CCC3C(CC[C@H]4C[C@H](O)CC[C@]34C)C1CC[C@@H]2O (stereo partly specified),-1.75%
15,COC(=O)COc1cc(Cl)c(Cl)cc1Cl,0.943%
16,CC(=O)OCC1=C(C(=O)O)N2C(=O)[C@@H](NC(=O)CCC[C@@H](N)C(=O)O)[C@H]2SC1,-10.5%
17,COc1c2c(cc3c1OCO3)CC[N+](C)=C2,-13.3%
18,Cc1cccc(C)c1NC1=NCCCS1,1.41%
19,C[C@]12CCC(=O)C=C1CCc1ccc(O)cc12,-5.7%
20,C[C@]12CC[C@H](Cl)C[C@@H]1CC[C@@H]1[C@@H]2CC[C@]2(C)C(=O)CC[C@@H]12 [3beta-CHLOROANDROSTANONE],8.52%
